Reference: patent publication US5683867, “Systematic evolution of ligands by exponential enrichment: blended SELEX” (NeXstar Pharmaceuticals, Inc.)
For some assays here: Negatives hold for the conditions tested. For some assays here: The exact form of at least one protein or probe is not confirmed. For some assays here: Tags and fusion partners may be left off the protein sequences shown.

What was measured:
thrombin (Homo sapiens) = assay: inhibition of the protein; details: 3' four 18-atom ethylene glycol spacers and thiol coupled to N-methoxysuccinyl-Ala-Ala-Pro-Val-chloromethyl ketone; no detectable inhibition at 650 nM; purified native protein; single-stranded DNA; variant of DNA-17
[1] = biological target: T1, neutrophil elastase (HNE) (Homo sapiens) (UniProt P08246); assay: binding assay; details: CITED from US application 08/199,507; purified native protein; single-stranded DNA
T1 sequence (looked up, limits assumed): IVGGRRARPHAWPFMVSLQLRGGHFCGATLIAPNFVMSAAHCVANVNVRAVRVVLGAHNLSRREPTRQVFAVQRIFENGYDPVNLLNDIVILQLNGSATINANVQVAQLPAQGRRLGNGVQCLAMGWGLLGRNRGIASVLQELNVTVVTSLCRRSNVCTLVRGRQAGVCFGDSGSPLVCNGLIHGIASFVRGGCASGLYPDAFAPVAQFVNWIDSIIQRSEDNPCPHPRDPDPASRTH

## TAGCGATACTGCGTGGGTTGGGGCGGGTAGGGCCAGCAGTCTCGTGCGGTACTTGAGCA [DNA-17 3'-end peptide conjugate]
Thrombin (Homo sapiens)
  functional effect of the aptamer: not active

## TAGCGATACTGCGTGGGTTGGGGCGGGTAGGGCCAGCAGTCTCGTGCGGTACTTGAGCA [DNA-17]
[1]
  Kd: 15 nM
